Results as given in PubChem BioAssay AID624291 (National Center for Advancing Translational Sciences (NCATS), 2012).
Screen size: about 350,000 compounds; about 220 (0.063%) were called active. This list was built around the results that the source calls inconclusive (neither active nor inactive); the mix of calls is not that of the screen. The call rests on the fitted dose curve; in most records, active means well fitted activation curve with a large enough effect; inconclusive means small, poorly fitted or top-dose-only effect; inactive means no such curve, though single readings can be large or run the other way. A potency beside an inconclusive call is a rough fit, not a confirmed value.

Experiment: qHTS for Activators of Integrin-Mediated Alleviation for Muscular Dystrophy; further: nearly all actives have a fitted effect of over 60% in size;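 on activation: 100% = response of the positive control SU9516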
Settings: alpha7betagal myoblasts, beta-gal FDG fluorescence, 48 h; activation: at 38.3 µM (top of the series)
Procedure, shortened: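 alpha7betagal+/- myoblasts (passage 13, 250/well) treated 48 h at 37C with compounds at 1:260 dilution of DMSO stock. Lysed, then beta-galactosidase activity read as FDG fluorescence (ex 480/em 540) after 30 min, with pre-read for autofluorescence.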
Potency means the concentration at half of the fitted maximal effect.

SMILES	Potency	activation
CNC(=O)COC(=O)c1cc(-c2ccco2)nc2ccccc12	inconclusive: 3.55 µM [activator, single point]	
CCCCNC(=O)CSc1nc2cc3c(cc2c(=O)n1CCCC(=O)NCCc1ccc(OC)c(OC)c1)OCO3	inactive	
C[N+](C)(C)CC(=O)N1CCN(c2ccc3ccccc3n2)CC1	inconclusive: 2.24 µM [activator, partial curve, poor fit]	
Cc1ccc(O)c(C2=Nc3ccccc3C2(C)C)c1	inactive	
NC(=O)c1nn(-c2ccc(Oc3ccccc3)cc2)c(=O)cc1O	inconclusive: 3.16 µM [activator, single point]	
Cc1ccc(C)c(-c2nnc(NC(=O)Cc3ccc(F)cc3)o2)c1	inactive	
CCOC(=O)c1sc(NC(=O)/C=C/c2ccc(F)cc2)nc1C	inactive	
O=S(=O)(NC1CCCCC1N1CCN(c2ccc(F)cc2)CC1)c1ccccc1 (stereo unspecified)	inconclusive: 2.82 µM [activator, single point]	
CCOc1ccc2[nH]c(=O)c(C(c3nnnn3Cc3ccco3)N3CCCC(C)C3)cc2c1 (stereo unspecified)	inconclusive: 28.2 µM [activator, single point]	
COc1ccccc1NC(=O)C1CC(O)CN1C(=O)Oc1ccccc1 (stereo unspecified)	inconclusive: 5.01 µM [activator, single point]	
O=C(NC1CCCCCC1)c1ccco1	inconclusive: 15.8 µM [activator, single point]	
O=C(NCCCCCc1nc2ccccc2[nH]1)c1ccccc1Cl	inconclusive: 0.501 µM [activator, full curve, poor fit]	
COc1cc(OC)cc(C(=O)NCC(=O)OCC(=O)c2cc(C)n(Cc3ccco3)c2C)c1	inactive	
O=C(NCc1cccc(CNC(=O)C(=O)NCc2ccco2)c1)C(=O)NCc1ccco1	inconclusive: 28.2 µM [activator, single point]	
O=C(COC(=O)c1ccncc1)Nc1cccc2ccccc12	inconclusive: 5.01 µM [activator, single point]	
C(=N\Nc1nc2ccccc2s1)/c1cccs1	inactive	
COc1cccc(N=NC2C(=O)N(C(N)=S)N=C2C)c1 (stereo unspecified)	inactive	
CCOc1ccc(OCCC(=O)NNC(=O)c2nn(C)c(=O)c3ccccc23)cc1	inconclusive: 5.01 µM [activator, single point]	
CCOC(=O)C1CCN(C(=O)CCS(=O)(=O)c2ccc3c(c2)CC(C)N3C(=O)CC)CC1 (stereo unspecified)	inconclusive: 5.01 µM [activator, single point]	
O=C(Cn1nc(C(=O)O)c2ccccc2c1=O)Nc1cc(Cl)cc(Cl)c1	inconclusive: 28.2 µM [activator, single point]	
CCc1c(C)sc2nc3c(C(=O)N4CCOCC4)cc(C(=O)c4cc(F)ccc4O)cn3c(=O)c12	inconclusive: 17.8 µM [activator, single point]	
CCc1ccc(S(=O)(=O)Nc2ccc(-c3ccc4nnc(C)n4n3)cc2)s1	inconclusive: 5.01 µM [activator, single point]	
O=[N+]([O-])c1ccc(CS(=O)c2ccccc2)cc1 (stereo unspecified)	inactive	
O=C(O)C1C2CC(C(Br)C2Br)C1C(=O)O (stereo unspecified)	inconclusive: 1.78 µM [activator, partial curve, poor fit]	

SMILES	Potency	activation
O=C(COc1ccc(F)cc1Cl)Nc1cccc(S(=O)(=O)N2CCCC2)c1	inactive	
CCN(CC)c1ccc(NC(=O)Nc2ccccc2)cc1	inconclusive: 5.62 µM [activator, single point]	
COc1cccc(-c2nc(C(=O)NCC3CCCO3)cc3c2[nH]c2ccccc23)c1 (stereo unspecified)	inactive	
O=C1CCCN1CCCNc1ccc2nnc(CCC(=O)N3CCN(c4ccc(F)cc4)CC3)n2n1	inconclusive: 1.58 µM [activator, partial curve, poor fit]	
CCC(Sc1nc2ccccc2s1)C(=O)Nc1nnc(C)s1 (stereo unspecified)	inconclusive: 11.2 µM [activator, single point]	
COCCCn1c(SCC(=O)NC2CCCC2)nnc1-c1cccs1	inconclusive: 22.4 µM [activator, single point]	
CN(Cc1ccccc1)C(=O)c1c[nH]c2ccc(S(=O)(=O)N3CCOCC3)cc2c1=O	inactive	
CCCCn1c(N)c(N(CCOC)C(=O)C2CCN(S(=O)(=O)c3ccc(Cl)cc3)CC2)c(=O)[nH]c1=O	inconclusive: 7.08 µM [activator, partial curve]	
CCOc1ccc2[nH]cc(C(=O)N3CCN(C4CCCCC4)CC3)c(=O)c2c1	inactive	
COCCn1c(-c2ccc(OC)cc2)nc2ccccc21	inactive	
COc1cc(/C=C/C(=O)O)cc(S(=O)(=O)Nc2ccc3nc(C)sc3c2)c1OC		inconclusive: -69.6% [activator]
CCN1CCN(C(=O)c2ccc(C(F)(F)F)cc2)CC1	inconclusive: 10 µM [activator, single point]	
Cn1c(CNC(=O)c2ccccc2F)nnc1SCC(=O)NCc1ccccc1	inconclusive: 3.16 µM [activator, single point]	
O=C(C1CC(c2ccccc2O)=NO1)N1CCc2ccccc2C1 (stereo unspecified)	inactive	
Cn1c(SCC(=O)N2CCCC2)nc2ccccc21	inconclusive: 11.2 µM [activator, single point]	
O=C(O)c1ccccc1C(=O)N1CCN(Cc2ccc3c(c2)OCO3)CC1	inactive	
O=C(CCc1nnc(CCCCc2ccccc2)o1)NC(c1cccnc1)C(F)(F)F (stereo unspecified)	inconclusive: 0.355 µM [activator, full curve, poor fit]	
NN1C(=O)/C(=C2/Sc3ccccc3N2CCCS(=O)(=O)O)SC1=S	inconclusive: 28.2 µM [activator, single point]	
COc1ccc(/C=C(\NC(=O)c2ccccc2)C(=O)NCC2CCCO2)cc1 (stereo unspecified)	inconclusive: 12.6 µM [activator, single point]	
Cc1ccc(COc2ccccc2-c2cc(C(=O)N/N=C/c3cccnc3)[nH]n2)cc1	inactive	
C/C(=N\Nc1nccnc1Cl)c1ccc([N+](=O)[O-])cc1	inactive	
CC(C)OCCCn1c(=NC(=O)c2cccs2)c(C#N)cc2c(=O)n3ccccc3nc21	inconclusive: 2.82 µM [activator, partial curve, poor fit]	
COCCCNC(=O)CCS(=O)(=O)Cc1ccc(C)cc1	inactive	
CCC(C)NC(=O)c1cn(CCOC)c(=O)c2c1c1ccccc1n2C (stereo unspecified)	inconclusive: 2.24 µM [activator, partial curve, poor fit]	

Some values from above.
Potency with CCCCn1c(N)c(N(CCOC)C(=O)C2CCN(S(=O)(=O)c3ccc(Cl)cc3)CC2)c(=O)[nH]c1=O is entered as inconclusive: 7.08 µM [activator, partial curve]
Potency with CCOC(=O)c1sc(NC(=O)/C=C/c2ccc(F)cc2)nc1C is entered as inactive
Potency with CCc1ccc(S(=O)(=O)Nc2ccc(-c3ccc4nnc(C)n4n3)cc2)s1 is entered as inconclusive: 5.01 µM [activator, single point]
Potency with O=C(O)C1C2CC(C(Br)C2Br)C1C(=O)O (stereo unspecified) is entered as inconclusive: 1.78 µM [activator, partial curve, poor fit]

(cont.)

SMILES	Potency	activation
CCOc1ccccc1/C=N/NC(=O)c1cccc(S(=O)(=O)N2CCOCC2)c1	inactive	
O=[N+]([O-])c1ccc(N2CCN(Cc3ccc([N+](=O)[O-])o3)CC2)cc1	inactive	
O=C(COC(=O)c1cc(S(=O)(=O)N2CCCCC2)ccc1N1CCOCC1)c1ccc(F)cc1	inactive	
O=c1[nH]n(-c2ccc(F)cc2)c2ncccc12	inactive	
O=C(CCc1ccccc1)Oc1ccccc1[N+](=O)[O-]	inactive	
Cc1nn(C)c(C)c1CN(C)S(=O)(=O)c1ccc(F)cc1	inactive	
O=C1CCC(C(=O)N2CCOCC2)CN1Cc1cccc(C(F)(F)F)c1 (stereo unspecified)	inconclusive: 11.2 µM [activator, partial curve, poor fit]	
Fc1ccc(NC(=S)NCCN2CCOCC2)cc1	inconclusive: 0.501 µM [activator, full curve, poor fit]	
COc1ccc2oc(-c3ccncc3)cc(=O)c2c1	inconclusive: 0.501 µM [activator, full curve, poor fit]	
CC(OC(=O)CN(C)S(=O)(=O)c1ccc(Cl)cc1)C(=O)Nc1cccc(Cl)c1 (stereo unspecified)	inactive	
CCN1CCN(C(=O)C2CCC(CNS(=O)(=O)c3ccc(NC(C)=O)cc3)CC2)CC1 (stereo unspecified)	inconclusive: 22.4 µM [activator, single point]	
CCOC(=O)NC1(C(F)(F)F)C(=O)N(Cc2ccccn2)C2=C1C(=O)CC(C)(C)C2 (stereo unspecified)	inconclusive: 1 µM [activator, partial curve, poor fit]	
O=C(O)c1ccccc1C(=O)NNc1cccc(Cl)n1	inactive	
CC(=O)c1cc2c(cc1NC(=O)Cc1ccsc1)OCO2	inconclusive: 5.01 µM [activator, single point]	
CC(C)(C)CC(=O)NC(=S)NCCc1ccccc1	inconclusive: 2.51 µM [activator, full curve]	
COc1ccc(C(=O)/C=C/c2ccc(OC)cc2OC)c(O)c1	inactive	
CC(C)C[C@H](CO)N(Cc1ccccc1)S(=O)(=O)N(Cc1ccccc1)[C@@H](CO)CC(C)C	inactive	
CN(C(=O)COC(=O)C12CC3CC(CC(C3)C1)C2)c1c(N)n(Cc2ccccc2)c(=O)[nH]c1=O	inconclusive: 3.16 µM [activator, single point]	
COc1ccccc1CNC(=O)CN1C(=O)COc2ccc(S(=O)(=O)NC3CCCC3)cc21	inconclusive: 7.94 µM [activator, partial curve, poor fit]	
O=C(CC1SC(N2CCCCC2)=NC1=O)Nc1cccc(C(=O)N2CCCC(C(F)(F)F)C2)c1 (stereo unspecified)	inconclusive: 5.01 µM [activator, single point]	
COc1cccc(OCCOc2ccc(/C=C3/SC(=S)NC3=O)cc2)c1	inconclusive: 28.2 µM [activator, single point]	
Cc1cc2ncn(C(=O)c3c(-c4ccccc4)noc3C)c2cc1C	inconclusive: 28.2 µM [activator, single point]	
COc1cc(OC)c(C2N(c3cc(C)on3)C(=O)C3CCCN32)cc1OC (stereo unspecified)	inconclusive: 10 µM [activator, single point]	
